Literature values, collected in patent US7060428B2, “Methods and compositions useful for the prediction of blood-brain barrier permeation” (Wyeth, priority 2001, dated 2006).
At least one read-out could not be matched to a standard name with certainty.

Conditions: from Crivori et al., J. Med. Chem. 2000, 43, 2204–2216; cited from earlier work

SMILES	CNS Known (known blood-brain barrier permeability)
CC(C)(C)c1ccc(C(O)CCCN2CCC(C(O)(c3ccccc3)c3ccccc3)CC2)cc1 (stereo not shown) [Terfenadine]	−
CC(=O)[C@H]1CC[C@H]2[C@@H]3CCC4=CC(=O)CC[C@]4(C)[C@H]3CC[C@]12C [Progesterone]	+
CN(C)CCCN1c2ccccc2Sc2ccc(Cl)cc21 [Chlorpromazine]	+
CN(C)CCCN1c2ccccc2Sc2ccccc21 [Promazine]	+
C[C@]12CCC(=O)C=C1CC[C@@H]1[C@@H]2[C@@H](O)C[C@]2(C=O)[C@@H](C(=O)CO)CC[C@@H]12 [Aldosterone]	−
CN1C(C(=O)Nc2ccccn2)=C(O)c2ccccc2S1(=O)=O [Piroxicam]	−
CCn1cc(C(=O)O)c(=O)c2cc(F)c(N3CCNC(C)C3)c(F)c21 (stereo not shown) [Lomefloxacin]	−
